doi:10.1101/2020.04.30.070086 (bioRxiv, 2020)
Results are given in words; binding and its absence hold for the method and conditions named. A result given as binding can be weak or reduced; the word gives no strength. For some assays here: Sequences can lack the tags named with a protein.

T1: GST-Ndel1, full length (FL) (UniProt Q9ERR1)
T1 sequence: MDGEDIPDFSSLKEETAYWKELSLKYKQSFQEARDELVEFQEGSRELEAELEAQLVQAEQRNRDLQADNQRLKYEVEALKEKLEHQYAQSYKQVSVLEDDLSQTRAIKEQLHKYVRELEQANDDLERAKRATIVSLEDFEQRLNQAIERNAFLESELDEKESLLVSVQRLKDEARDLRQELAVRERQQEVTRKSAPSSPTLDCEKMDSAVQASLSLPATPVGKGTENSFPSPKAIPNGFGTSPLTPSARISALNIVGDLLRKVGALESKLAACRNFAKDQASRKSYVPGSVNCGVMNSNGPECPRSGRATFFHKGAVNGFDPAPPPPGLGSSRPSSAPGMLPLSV

B1: keratin 10 (K10), full length (natural protein, UniProt P02535-2 1-561, looked up)
chain: MSVLYSSSSKQFSSSRSGGGGGGGSVRVSSTRGSLGGGYSSGGFSGGSFSRGSSGGGCFGGSSGGYGGFGGGGSFGGGYGGSSFGGGYGGSSFGGGSFGGGGSFGGGSFGGGSYGGGFGGGGFGGDGGSLLSGNEKVTMQNLNDRLASYMDKVRALEESNYELEGKIKEWYEKHGNSSQREPRDYSKYYKTIEDLKGQILTLTTDNANVLLQIDNARLAADDFRLKYENEVTLRQSVEADINGLRRVLDELTLSKSDLEMQIESLNEELAYLKKNHEEEMRDLQNVSTGDVNVEMNAAPGVDLTQLLNNMRNQYEQLAEKNRKDAEEWFNQKSKELTTEIDSNIEQMSSHKSEITELRRTVQGLEIELQSQLALKQSLEASLAETEGRYCVQLSQIQSQISALEEQLQQIRAETECQNAEYQQLLDIKTRLENEIQTYRSLLEGEGSSSGGGGGRRGGSGGGSYGGSSGGGSYGGSSGGGGSYGGSSGGGGSYGGGSSGGGSHGGSSGGGYGGGSSSGGAGGHGGSSGGGYGGGSSSGGQGGSGGFKSSGGGDQSSKGPRY

Key:
[1] = target: T1, GST-Ndel1, full length (FL); test: pull-down
[2] = target: GST-Ndel1 alpha-helical region (AH); test: pull-down

Row | Molecule | binding [1] | binding [2]
1 | IF consensus motif of keratin 10 (domain or fragment) | binds | 
2 | B1 |  | binds
